Results are given in words; binding and its absence hold for the method and conditions named. For some assays here: In cells and extracts the contact can be indirect. Some results given as binding are weak or reduced against the parent protein; the word gives no strength.
Key:
human fibrinogen (human) = human fibrinogen (human) (UniProt P02671); test: ELISA; the same inhibition ELISA: the pair that is blocked, Efb in solution on coated human fibrinogen; both purified
[1] = target: extracellular fibrinogen binding protein (Staphylococcus aureus) (UniProt A6QG59); test: ELISA; only the target purified
[2] = target: extracellular fibrinogen binding protein (Staphylococcus aureus) (UniProt A6QG59); test: pull-down; only the target purified

Sequences of proteins named here, by UniProt entry; tags and fusion partners are left off. A change or cut given only in a name is not applied to a line headed by its entry. Residues count along the entry.
UniProt P02671: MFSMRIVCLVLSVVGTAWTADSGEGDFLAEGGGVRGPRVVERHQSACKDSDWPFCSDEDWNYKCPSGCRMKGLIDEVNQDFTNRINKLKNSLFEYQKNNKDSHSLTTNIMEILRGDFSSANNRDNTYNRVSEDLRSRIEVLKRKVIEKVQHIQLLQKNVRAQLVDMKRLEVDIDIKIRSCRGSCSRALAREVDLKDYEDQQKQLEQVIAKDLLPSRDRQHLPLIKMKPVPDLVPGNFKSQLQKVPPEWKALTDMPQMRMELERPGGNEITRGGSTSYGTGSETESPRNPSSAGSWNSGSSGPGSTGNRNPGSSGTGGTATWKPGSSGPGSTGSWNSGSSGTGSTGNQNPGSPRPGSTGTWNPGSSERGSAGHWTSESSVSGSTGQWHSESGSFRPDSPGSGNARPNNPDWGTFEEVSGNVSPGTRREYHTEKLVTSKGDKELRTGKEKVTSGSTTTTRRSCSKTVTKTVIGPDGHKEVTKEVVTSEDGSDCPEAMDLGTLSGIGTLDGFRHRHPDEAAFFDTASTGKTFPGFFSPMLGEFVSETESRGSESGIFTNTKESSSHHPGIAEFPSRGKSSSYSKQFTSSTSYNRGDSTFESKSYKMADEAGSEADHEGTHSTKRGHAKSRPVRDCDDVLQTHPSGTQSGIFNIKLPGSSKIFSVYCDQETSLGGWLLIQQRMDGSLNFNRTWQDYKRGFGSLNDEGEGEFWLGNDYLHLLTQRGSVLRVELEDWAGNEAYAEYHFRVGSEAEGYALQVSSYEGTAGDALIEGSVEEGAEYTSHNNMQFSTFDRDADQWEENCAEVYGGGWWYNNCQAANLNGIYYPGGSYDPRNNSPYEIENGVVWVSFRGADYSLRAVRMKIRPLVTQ
UniProt A6QG59, residues 30-165: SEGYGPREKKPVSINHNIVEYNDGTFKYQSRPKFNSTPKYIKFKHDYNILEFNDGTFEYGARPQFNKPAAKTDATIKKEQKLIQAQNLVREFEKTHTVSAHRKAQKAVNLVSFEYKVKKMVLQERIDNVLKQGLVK
UniProt E9PV24: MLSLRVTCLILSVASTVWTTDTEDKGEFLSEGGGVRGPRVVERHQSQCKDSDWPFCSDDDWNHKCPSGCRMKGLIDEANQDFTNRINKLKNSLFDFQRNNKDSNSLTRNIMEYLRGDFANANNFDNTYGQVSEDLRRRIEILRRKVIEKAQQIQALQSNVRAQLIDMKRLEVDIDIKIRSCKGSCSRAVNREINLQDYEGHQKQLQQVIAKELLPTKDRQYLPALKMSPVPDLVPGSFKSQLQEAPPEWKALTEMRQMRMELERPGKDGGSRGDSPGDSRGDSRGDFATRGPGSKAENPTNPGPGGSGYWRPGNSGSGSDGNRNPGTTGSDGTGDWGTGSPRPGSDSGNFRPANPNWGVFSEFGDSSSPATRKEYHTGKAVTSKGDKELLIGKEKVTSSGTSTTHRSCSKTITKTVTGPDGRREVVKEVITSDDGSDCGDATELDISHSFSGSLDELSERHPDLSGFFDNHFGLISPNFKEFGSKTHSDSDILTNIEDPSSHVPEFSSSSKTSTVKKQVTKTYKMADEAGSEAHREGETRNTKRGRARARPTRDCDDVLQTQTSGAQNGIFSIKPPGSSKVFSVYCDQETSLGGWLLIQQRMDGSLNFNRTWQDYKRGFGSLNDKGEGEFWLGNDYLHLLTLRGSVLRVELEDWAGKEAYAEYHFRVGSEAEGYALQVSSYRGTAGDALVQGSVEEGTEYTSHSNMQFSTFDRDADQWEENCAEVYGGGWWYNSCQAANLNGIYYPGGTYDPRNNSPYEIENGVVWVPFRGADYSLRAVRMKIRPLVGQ
UniProt Q8K0E8: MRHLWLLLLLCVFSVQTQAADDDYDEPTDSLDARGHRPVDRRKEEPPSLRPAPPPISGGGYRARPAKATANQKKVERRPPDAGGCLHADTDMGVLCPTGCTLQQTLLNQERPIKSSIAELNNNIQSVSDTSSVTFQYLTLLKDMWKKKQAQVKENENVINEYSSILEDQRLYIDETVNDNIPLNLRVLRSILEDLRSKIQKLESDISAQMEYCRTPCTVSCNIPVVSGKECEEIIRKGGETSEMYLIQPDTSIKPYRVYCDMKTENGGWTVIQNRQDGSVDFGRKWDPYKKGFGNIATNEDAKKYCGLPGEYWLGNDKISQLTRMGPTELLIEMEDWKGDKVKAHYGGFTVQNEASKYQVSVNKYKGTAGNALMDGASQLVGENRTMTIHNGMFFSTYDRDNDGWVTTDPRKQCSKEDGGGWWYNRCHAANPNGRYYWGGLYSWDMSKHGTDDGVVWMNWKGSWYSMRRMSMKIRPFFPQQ
UniProt Q8VCM7: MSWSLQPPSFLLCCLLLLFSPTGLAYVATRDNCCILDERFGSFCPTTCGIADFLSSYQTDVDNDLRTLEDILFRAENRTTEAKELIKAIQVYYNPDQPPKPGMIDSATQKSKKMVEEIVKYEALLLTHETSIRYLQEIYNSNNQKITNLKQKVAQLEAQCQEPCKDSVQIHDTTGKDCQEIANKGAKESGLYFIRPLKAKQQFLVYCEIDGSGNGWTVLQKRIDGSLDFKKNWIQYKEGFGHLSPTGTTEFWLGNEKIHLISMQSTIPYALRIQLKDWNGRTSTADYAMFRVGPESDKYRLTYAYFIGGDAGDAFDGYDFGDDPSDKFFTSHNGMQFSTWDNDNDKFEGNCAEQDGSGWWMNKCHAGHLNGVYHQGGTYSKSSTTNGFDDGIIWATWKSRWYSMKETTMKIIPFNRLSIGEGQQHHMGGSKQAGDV
UniProt P02675: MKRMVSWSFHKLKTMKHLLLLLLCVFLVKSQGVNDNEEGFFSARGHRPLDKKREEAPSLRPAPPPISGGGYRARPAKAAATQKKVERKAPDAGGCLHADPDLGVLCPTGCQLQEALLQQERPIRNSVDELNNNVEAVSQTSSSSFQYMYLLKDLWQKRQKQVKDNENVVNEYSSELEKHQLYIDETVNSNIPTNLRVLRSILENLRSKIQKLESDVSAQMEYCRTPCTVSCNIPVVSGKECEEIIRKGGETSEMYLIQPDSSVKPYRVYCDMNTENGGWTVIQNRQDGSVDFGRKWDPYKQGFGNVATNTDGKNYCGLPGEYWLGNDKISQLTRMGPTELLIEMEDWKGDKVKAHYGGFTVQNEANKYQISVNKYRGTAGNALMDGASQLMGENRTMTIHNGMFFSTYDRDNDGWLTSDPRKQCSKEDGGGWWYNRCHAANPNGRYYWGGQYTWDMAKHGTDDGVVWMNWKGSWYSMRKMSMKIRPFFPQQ
UniProt P02679: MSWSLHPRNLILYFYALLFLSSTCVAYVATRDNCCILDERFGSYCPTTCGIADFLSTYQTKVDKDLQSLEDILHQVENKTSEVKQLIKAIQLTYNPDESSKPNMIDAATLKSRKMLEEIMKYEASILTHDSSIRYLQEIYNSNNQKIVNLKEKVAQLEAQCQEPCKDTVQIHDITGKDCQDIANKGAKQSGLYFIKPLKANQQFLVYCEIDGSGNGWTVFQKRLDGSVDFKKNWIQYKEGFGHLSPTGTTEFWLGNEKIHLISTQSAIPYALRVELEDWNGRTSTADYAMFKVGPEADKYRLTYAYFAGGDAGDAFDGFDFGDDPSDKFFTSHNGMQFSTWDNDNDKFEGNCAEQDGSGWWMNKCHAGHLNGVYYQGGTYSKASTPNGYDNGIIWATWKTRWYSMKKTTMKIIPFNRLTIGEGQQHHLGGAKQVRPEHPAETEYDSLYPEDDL

Row | Substance | binding (human fibrinogen (human)) | binding [1] | binding [2]
1 | extracellular fibrinogen binding protein (from UniProt A6QG59 30-165) | binds | – | –
2 | fibrinogen of mouse plasma (from UniProt E9PV24;Q8K0E8;Q8VCM7) | – | binds | binds
3 | human fibrinogen (from UniProt P02671;P02675;P02679) | – | binds | binds

From article PMC5404189
